At least one read-out could not be matched to a standard name with certainty.
Columns and labels:
Type in all cases: in vivo
Monocots [1] = test: Herbicidal activity, preemergence, monocot weeds (Table II); settings: 1/4 lb./A. (** footnote), about 2 weeks
Procedure: (§1) Using the procedure described below, diphenyl ethers were evaluated for control of the following weeds: […]
(§2) barnyardgrass (Echinochloa crusgalli) crabgrass (Digitaria spp.) nutsedge (Cyperus esculentus)
(§3) At 2 and 4 pounds per acre:
(§4) **Bermudagrass (Cynodon dactylon)
(§5) *downy brome (Bromus tectorum) foxtail (Setaria faberii)
(§6) Johnsongrass (Sorghum halepense) […]
(§7) quackgrass (Agropyron repens)
(§8) *ryegrass (Lolium perenne)
(§9) *yellow millet (Panicum miliaceum)
(§10) The following test procedure is employed. Seeds of selected crops and weeds are planted in soil in flats. For preemergence tests, the flats are treated with the test compound immediately after the planting. For postemergence tests, the seeds are allowed to germinate, and after 2 weeks the flats are treated with the test compound. The compound to be evaluated is dissolved in acetone, diluted with water, and sprayed over the flats using a carrier volume equivalent to 50 gallons per acre at the rate of application (pounds per acre, lb/A.) specified in the tables. About 2 weeks after the application of the test compound, the state of growth of the plants is observed and the phytotoxic effect of the compound is evaluated. Table II gives the average percent control achieved by the test compounds in terms of the percent of the plants which are killed by the compounds.

Dicots [2] = test: Herbicidal activity, preemergence, dicot weeds (Table II); settings: 1/4 lb./A. (** footnote), about 2 weeks
Procedure: as §1
(§11) bindweed (Convolvulus arvensis) curly dock (Remex crispus) velvetleaf (Abutilon theophrasti) wild mustard (Brassica haber)
(§12) At 2 and 4 pounds per acre: […]
(§13) cocklebur (Xanthium pensylvanicum)
(§14) **coffeeweed (Sesbania macrocarpa)
(§15) *curly dock (Rumex crispus)
(§16) *lambsquarters (Chenopodium album) morningglory (Ipomoea purpurea)
(§17) *pigweed (Amaranthus retroflexus)
(§18) **ragweed (Ambrosia artemisiifolia)
(§19) *smartweed (Polygonum pensylvanicum)
(§20) **tomato (Lycopersicon esculentum)
(§21) *wild carrot (Daucus carota)
(§22) *wild mustard (Brassica haber)
as §10, with “Table II gives the average percent control achieved by the test compounds in terms of the percent of the plants which are killed by the compounds.” left out

Monocots [3] = test: Herbicidal activity, postemergence, monocot weeds (Table II); settings: 1/2 lb./A. (+ footnote), about 2 weeks
Procedure: as §1, §2, §3, §4, §5, §6, §7, §8, §9, §10

Dicots [4] = test: Herbicidal activity, postemergence, dicot weeds (Table II); settings: 1/2 lb./A. (+ footnote), about 2 weeks
Procedure: as §1, §11, §12, §13, §14, §15, §16, §17, §18, §19, §20, §21, §22
as §10, with “Table II gives the average percent control achieved by the test compounds in terms of the percent of the plants which are killed by the compounds.” left out

CCOc1cc(Oc2ccc(C(F)(F)F)cc2Cl)ccc1[N+](=O)[O-] [Example 3, 2-Chloro-α,α,α-trifluoro-p-tolyl-3-ethoxy-4-nitrophenyl ether]
% control (percent of plants killed) (Monocots [1]): 84% | % control (percent of plants killed) (Dicots [2]): 66% | % control (percent of plants killed) (Monocots [3]): 96% | % control (percent of plants killed) (Dicots [4]): 97%

— patent publication USRE31731E, “Herbicidal 4-trifluoromethyl-4-nitrodiphenyl ethers” (priority 1978, dated 1984)
